# In PubChem BioAssay AID2685 (National Center for Advancing Translational Sciences (NCATS), 2010):
# The list shows a part of the results. Further columns of the screen follow, without active or inactive calls. The list favours compounds with an active or inconclusive main result. Words in brackets tell the shape of the fitted curve; partial curves, single points and poor fits give uncertain potencies.
# Experiment: qHTS Assay for Lipid Storage Modulators in Drosophila S3 Cells;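 for cell number change: cells counted by Cell Tracker Red CMTPX staining in the red channel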
# Conditions: BODIPY lipid droplet fluorescence, 18-24 h; for cell number change: measured here: cell count max response, cells fed with added oleic acid
# In short: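 Drosophila S3 cells got compounds at several concentrations plus oleic acid (400 uM solution). Laser-scanning cytometry with 488 nm excitation read lipid droplets at 500-530 nm and cells at 575-640 nm. Percent activity was relative to 20 uM Triacsin C.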
# [1] = measured here: lipid fluorescence (Fed channel) AC50, cells fed with added oleic acid
# [2] = measured here: cell number channel AC50, cells fed with added oleic acid
SMILES,cell number change [%],AC50 [1],AC50 [2]
CCOc1cc(C)ccc1OCc1nnc(SCC(=O)Nc2cccc(C(=O)O)c2)n1-c1ccccc1,51.9,"29.1 µM [rising, single point]",
O=C(/C=C/c1ccc(OCCCF)cc1)Nc1ccnc(-c2ccncc2)n1,-69.5,,"16.4 µM [falling, single point]"
O=C(NNS(=O)(=O)c1ccc(F)cc1)C1CCN(Cc2cccc(F)c2)CC1,34.1,"6.51 µM [falling, single point]","32.6 µM [rising, single point]"
COC(=O)c1c(NC(=O)COC(=O)CCNS(=O)(=O)c2ccccc2)sc(C)c1C,-21.9,,
CCOC(=O)N1CCN(c2c(N3CCN(c4ccccn4)CC3)c(=O)c2=O)CC1,50,,"29.1 µM [rising, single point]"
COc1ccc(CCNC(=O)Cc2ccc(Cl)cc2)cc1OC,-32.8,"29.1 µM [falling, single point]","16.4 µM [falling, single point]"
CCN(CC(=O)Nc1ccccc1C(=O)Nc1ccccc1)Cc1nc2ccccc2c(=O)[nH]1,-16.1,,
CCc1ccccc1NC(=O)Nc1cccn(Cc2ccccc2F)c1=O,,"6.51 µM [rising, single point]",
CCCN(CC(=O)Nc1ccccc1OC)C(=O)c1ccc(COc2ccccc2)o1,-20,,
CC1CCN(c2ccc3c(c2)S(=O)(=O)c2cccc(C(=O)NC4CCCCC4)c2C3=O)CC1,-22.4,"29.1 µM [falling, single point]",
CCC1/C(=N\O)CC(c2ccco2)NC1c1ccco1 (stereo not given),35.3,"29.1 µM [rising, single point]","16.4 µM [rising, single point]"
CC(=O)OCCCN1c2ccccc2Nc2nnc(-c3ccccc3)cc21,-22,,
CCn1c(COc2ccc3ccccc3c2C)nnc1SCC(=O)Nc1cccc(C(=O)O)c1,25.2,"9.2 µM [rising, partial curve, poor fit]",
C#CCOc1ccc(/C=C2/C(=O)ON=C2C)cc1Cl,-29.8,"25.9 µM [falling, single point]",
O=C(Cc1cccs1)NCc1cccc(CNC(=O)Cc2cccs2)c1,51.2,,"0.58 µM [rising, full curve]"
COCCNC(=O)C(c1ccco1)N(C(=O)Cn1nnc2ccccc21)c1ccc(C)cc1C (stereo not given),91.5,"7.31 µM [rising, partial curve]","10.3 µM [rising, partial curve]"
O=C(O)C1CSC2(c3ccc(Br)cc3)CCC(=O)N12 (stereo not given),,"1.03 µM [rising, single point]",
CCN(CC)CCOC(=O)c1ccc2c(c1)OCCO2,-61.6,"2.31 µM [falling, partial curve]","0.164 µM [falling, full curve]"
O=C(Nc1ccc(Cl)cc1)N1CCCN(Cc2ccc(F)cc2)C1,,"0.259 µM [falling, full curve, poor fit]",
CCN1C(=O)c2cccc3c(NC(=O)c4ccc(OC)c(OC)c4)ccc1c23,,"0.461 µM [rising, full curve]","1.46 µM [rising, partial curve]"
CCCCOc1ccccc1C(=O)N(Cc1ccc(C)o1)C1CCS(=O)(=O)C1 (stereo not given),-18.1,"29.1 µM [falling, single point]",
CN1CCN(C(=O)/C(=C/c2ccc(N(C)C)cc2)NC(=O)c2ccccc2)CC1,26.9,,
CCC1CCCCN1C(=S)NC(=O)c1ccc(F)c(S(=O)(=O)N2CCOCC2)c1 (stereo not given),14.5,"0.731 µM [falling, partial curve]",
Cc1ccc(N2C(=O)CC(n3nc(C)cc3C)C2=O)cc1 (stereo not given),8.37,"0.00461 µM [falling, full curve, poor fit]",
O=C(Nc1ccccn1)Nc1ccccc1[N+](=O)[O-],,"4.61 µM [falling, full curve]",
Cn1nc(-c2ccc(C(=O)Nc3ccc(F)cc3)cc2)c2ccccc2c1=O,-67.2,,
O=C(c1coc(=O)c2ccccc12)N1CCN(Cc2ccccc2)CC1,-9.77,,
Cc1cc(OCC(=O)OCC(=O)NCC2CCCO2)ccc1Cl (stereo not given),14.5,"7.31 µM [rising, partial curve, poor fit]",
CCN(CC)C(=O)CSc1nnc([C@H](CCSC)NC(=O)OC(C)(C)C)o1,3.73,"0.731 µM [rising, single point]",
Cc1cccc(NS(=O)(=O)c2ccc(NC(=O)CN(c3cc([N+](=O)[O-])ccc3C)S(C)(=O)=O)cc2)c1,-60.9,"29.1 µM [falling, single point]","29.1 µM [falling, single point]"

# One compound at a time, from the list above:
# `O=C(NNS(=O)(=O)c1ccc(F)cc1)C1CCN(Cc2cccc(F)c2)CC1` as listed: cell number change [%]: 34.1; AC50 [1]: 6.51 µM [falling, single point]; AC50 [2]: 32.6 µM [rising, single point]
# `Cn1nc(-c2ccc(C(=O)Nc3ccc(F)cc3)cc2)c2ccccc2c1=O` as listed: cell number change [%]: -67.2
